Negatives hold for the conditions tested. For some assays here: Tags and fusion partners may be left off the protein sequences shown.
How the values were obtained:
[1] = molecular target: T1, PoxClrB1-120 (Penicillium oxalicum HP7-1) (UniProt A0A1C9J6R8); experiment: EMSA; conditions: EMSA: 20 mM Tris-HCl pH 8.0, 50 mM KCl, 0.1 mg/mL BSA, 5% glycerol, 1 mM DTT, 1 ug salmon sperm DNA, ~50 ng probe, 30 min at 30 C; footprinting at 30 C; recombinant protein; residues 1-120; protein details: Trx-His-S (pET32a); label: 6-FAM; probe letters rebuilt from the primers and the genome
T1 sequence (looked up): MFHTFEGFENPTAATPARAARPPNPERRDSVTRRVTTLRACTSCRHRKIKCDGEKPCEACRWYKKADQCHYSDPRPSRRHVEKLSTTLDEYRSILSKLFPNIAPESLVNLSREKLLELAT

[2] = molecular target: PoxCxrA11-31 (Penicillium oxalicum HP7-1) (UniProt A0A2H4WV05); experiment: EMSA; conditions: EMSA: 20 mM Tris-HCl pH 8.0, 50 mM KCl, 0.1 mg/mL BSA, 5% glycerol, 1 mM DTT, 1 ug salmon sperm DNA, ~50 ng probe, 30 min at 30 C; footprinting at 30 C; recombinant protein; residues 11-31; protein details: Trx-His-S (pET32a); label: 6-FAM; probe letters rebuilt from the primers and the genome

Sequence | binding result [1] | binding result [2]
CACTGTGTAGCAGCATATCGAAGAAGCTGGCCATCCAGCCGGGGATTAGCAAGTTCGCGACTGCAGTGATCGGGGGTTAGAAAGTGCGAGTACCAGGATGCAAACGTGGTTCGTCGGTCTTTCTAAAACCCGCCTGTCCCCCCGCCCCCACACTCTATGGTACACTTGCCCTTTCATTCATTCTTTCTTCCTTTCTTTCCTTTTTTTTTCCGCCCAAAATCCTCGGGCTTCGGGCACTCGGACTCAGGAGCAACTCTTCTATCCCGTAGTCAATCACTTAATCACTTGCAACTGGATCAATAGTTTCTCAAGTCGTCGGC (double strand) [PoxCxrA promoter 300 bp] | no binding | 
GAGAGATCCACTACCCGCAAAATCTGGGGAGCTTCCTCCGTGTCCGCGGAGTGCGTGCTGGCAGGCATTCCATTTTCGTGCATGACTGAGATGAACTTCACCCCCTGGGGCTATGCACAGTGGTGCGGACCGCCACGCCGTGGATGTCCATCCCAAAAGGAAATCAGTCGAGAGGCGAATTGCTTCAGGATCCACCCAAGGAAGCAACTATATAAGAAGAGGTGCCATCACCTCGACTCTGGTGTTCATCATCCATTCCTTCCTCATCTCCTCCACCACCCCCCTTTCATCAGATCCTCAAAGAACAAAATTGATCATCATCTCTTTTGATCTTTGATCCAATCCATCACA (double strand) [POX05587/Cel7A-2 promoter 300 bp] |  | no binding

Source: PMC6498484
